From US20140273152A1

B1: MnxE (protein)
chain: MHDSPLKSLSAASNVASVNDPLFDFFNKHMGKQILIITESSQLNILGQTFRPIFCGKVAEVEPGHLTLSPVTIKILNAPFHKFPIPLSIPFEKIAHFTTDVDCSMRIPLV
B2: MnxF (protein)
chain: MEALFPMSTDYSKMTDVNEIHDSAILEHFRNGIGHKTLVISPSYPYMFVGIIKELIGDTVMIDVETTHFAQLENREWYIHIHNIEVFYIERPGAPKIPKLEDY

Biological target: MnxG (Bacillus sp. strain PL-12)
Assay: co-purification; MS/MS of the active band from non-denaturing SDS-PAGE; size exclusion chromatography gives 230 kDa for the complex

Binder	binding
B1	binds
B2	binds

These are yes or no findings as the source states them, for the method shown. Binding seen in cells or lysates may run through a third protein. A result given as binding can be weak or reduced; the word gives no strength.
